The record followed here is publication PMC9455263.

By UniProt entry, the sequences of proteins in these tests, tags left out. Where a name states a change or a piece, a line headed by the entry shows the natural chain unless it says otherwise.
UniProt P06401: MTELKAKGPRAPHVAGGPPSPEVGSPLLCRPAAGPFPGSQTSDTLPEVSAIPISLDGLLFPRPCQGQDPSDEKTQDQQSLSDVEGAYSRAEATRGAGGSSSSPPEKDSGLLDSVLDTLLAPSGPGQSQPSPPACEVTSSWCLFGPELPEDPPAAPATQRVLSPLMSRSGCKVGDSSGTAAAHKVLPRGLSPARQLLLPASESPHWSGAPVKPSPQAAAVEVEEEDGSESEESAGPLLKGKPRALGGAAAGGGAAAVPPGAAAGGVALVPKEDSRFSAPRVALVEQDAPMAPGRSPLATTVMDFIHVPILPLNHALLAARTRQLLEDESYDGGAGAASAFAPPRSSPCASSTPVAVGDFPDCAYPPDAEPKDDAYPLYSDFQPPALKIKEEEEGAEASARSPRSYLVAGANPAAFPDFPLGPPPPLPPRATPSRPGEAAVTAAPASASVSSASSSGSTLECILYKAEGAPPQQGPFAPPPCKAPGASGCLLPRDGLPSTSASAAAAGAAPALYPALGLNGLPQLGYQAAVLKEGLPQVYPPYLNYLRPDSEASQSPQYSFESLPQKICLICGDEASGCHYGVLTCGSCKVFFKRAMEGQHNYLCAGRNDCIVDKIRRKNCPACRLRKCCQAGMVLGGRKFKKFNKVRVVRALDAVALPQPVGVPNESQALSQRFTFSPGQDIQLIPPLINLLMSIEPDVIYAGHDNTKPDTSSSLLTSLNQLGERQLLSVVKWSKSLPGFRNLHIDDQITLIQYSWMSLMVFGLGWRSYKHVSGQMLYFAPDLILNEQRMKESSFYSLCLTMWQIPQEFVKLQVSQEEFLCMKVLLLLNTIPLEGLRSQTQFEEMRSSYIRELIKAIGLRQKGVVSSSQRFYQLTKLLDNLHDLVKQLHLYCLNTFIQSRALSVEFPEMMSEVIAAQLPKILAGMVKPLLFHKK
UniProt Q99873: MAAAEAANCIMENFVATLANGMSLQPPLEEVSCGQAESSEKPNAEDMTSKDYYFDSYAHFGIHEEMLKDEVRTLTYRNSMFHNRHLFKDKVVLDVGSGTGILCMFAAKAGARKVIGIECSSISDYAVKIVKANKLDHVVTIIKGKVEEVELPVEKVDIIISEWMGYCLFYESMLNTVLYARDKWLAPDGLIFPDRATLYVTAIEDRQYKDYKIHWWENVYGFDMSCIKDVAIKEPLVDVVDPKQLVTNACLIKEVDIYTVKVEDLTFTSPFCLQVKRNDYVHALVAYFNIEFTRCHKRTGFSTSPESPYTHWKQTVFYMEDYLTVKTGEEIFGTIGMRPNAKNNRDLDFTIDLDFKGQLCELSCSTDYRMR
UniProt Q13185: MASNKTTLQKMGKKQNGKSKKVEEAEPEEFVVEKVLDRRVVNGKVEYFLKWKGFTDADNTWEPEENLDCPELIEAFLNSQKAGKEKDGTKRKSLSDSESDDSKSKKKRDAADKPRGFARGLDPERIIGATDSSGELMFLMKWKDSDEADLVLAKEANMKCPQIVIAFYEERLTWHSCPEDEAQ

These are yes or no findings as the source states them, for the method shown. In cells and extracts the contact can be indirect. Some binding calls cover weakened binding; strength is not graded here.

The target in assay [1] is progesterone receptor (PR), unliganded (human (endogenous in T47D)) (UniProt P06401). Put plainly: co-IP; endogenous proteins; whole-cell extracts (RIPA buffer, 1 mg protein) of T47D cells deprived of steroids 48 h and serum-starved 24 h; IP with anti-PR, anti-PRMT1 or anti-HP1γ antibody or control IgG overnight at 4 °C, protein A agarose, immunoblot. (In general: A western blot detects proteins with antibodies after separation by electrophoresis.)

Assay [2] deals with protein arginine methyltransferase 1 (PRMT1) (human (endogenous in T47D)) (UniProt Q99873). The assay is described as above.
Assay [3] addresses progesterone receptor (PR), unliganded (human (endogenous in T47D)) (UniProt P06401). Description: proximity ligation; Duolink in situ PLA on endogenous proteins in methanol-fixed T47D cells deprived of steroids 48 h and serum-starved 24 h; pairs of primary antibodies; cells transfected with siNS or with siRNAs against PR, PRMT1, HP1γ or BRCA1 as specificity controls.
The target of assay [4] is protein arginine methyltransferase 1 (PRMT1) (human (endogenous in T47D)) (UniProt Q99873). The assay is described as above.

For “heterochromatin protein 1γ (HP1γ) (from UniProt Q13185 1-183)”, the binding entry in assay [1], in assay [2], in assay [3] and in assay [4] was “binds” each time.
On to “protein arginine methyltransferase 1 (PRMT1) (from UniProt Q99873 1-371) (enzyme)”, for which, in assay [1], the binding result is on record as “binds”.
